Assay results taken from PMC3714271.
Results are given in words; binding and its absence hold for the method and conditions named. In cells and extracts the contact can be indirect. Binding calls can cover weak binding; strength is not graded here. Sequences can lack the tags named with a protein.

Biological target: dynein intermediate chain (human (endogenous in HEK293T))
Test: co-IP; anti-DIC immunoprecipitation from HEK293T extracts (untransfected or expressing FLAG-CDK5RAP2 fragments); lysis buffer 25 mM Tris-HCl pH 7.4, 0.5% NP40, 100 mM NaCl; at least 2 h, 4°C; normal mouse IgG as control

| binding | Binder |
| --- | --- |
| no binding | FLAG-tagged CDK5RAP2 construct 1–706 (domain or fragment, UniProt Q96SN8 1-706) MMDLVLEEDVTVPGTLSGCSGLVPSVPDDLDGINPNAGLGNGLLPNVSEETVSPTRARNMKDFENQITELKKENFNLKLRIYFLEERMQQEFHGPTEHIYKTNIELKVEVESLKRELQEREQLLIKASKAVESLAEAGGSEIQRVKEDARKKVQQVEDLLTKRILLLEKDVTAAQAELEKAFAGTETEKALRLRLESKLSEMKKMHEGDLAMALVLDEKDRLIEELKLSLKSKEALIQCLKEEKSQMACPDENVSSGELRGLCAAPREEKERETEAAQMEHQKERNSFEERIQALEEDLREKEREIATEKKNSLKRDKAIQGLTMALKSKEKKVEELNSEIEKLSAAFAKAREALQKAQTQEFQGSEDYETALSGKEALSAALRSQNLTKSTENHRLRRSIKKITQELSDLQQERERLEKDLEEAHREKSKGDCTIRDLRNEVEKLRNEVNEREKAMENRYKSLLSESNKKLHNQEQVIKHLTESTNQKDVLLQKFNEKDLEVIQQNCYLMAAEDLELRSEGLITEKCSSQQPPGSKTIFSKEKKQSSDYEELIQVLKKEQDIYTHLVKSLQESDSINNLQAELNKIFALRKQLEQDVLSYQNLRKTLEEQISEIRRREEESFSLYSDQTSYLSICLEENNRFQVEHFSQEELKKKVSDLIQLVKELYTDNQHLKKTIFDLSCMGFQGNGFPDRLASTEQTELLAS |
| binds | FLAG-tagged CDK5RAP2 construct spanning residues 706–1893 (domain or fragment, UniProt Q96SN8 706-1893) SKEDEDTIKIGEDDEINFLSDQHLQQSNEIMKDLSKGGCKNGYLRHTESKISDCDGAHAPGCLEEGAFINLLAPLFNEKATLLLESRPDLLKVVRELLLGQLFLTEQEVSGEHLDGKTEKTPKQKGELVHFVQTNSFSKPHDELKLSCEAQLVKAGEVPKVGLKDASVQTVATEGDLLRFKHEATREAWEEKPINTALSAEHRPENLHGVPGWQAALLSLPGITNREAKKSRLPILIKPSRSLGNMYRLPATQEVVTQLQSQILELQGELKEFKTCNKQLHQKLILAEAVMEGRPTPDKTLLNAQPPVGAAYQDSPGEQKGIKTTSSVWRDKEMDSDQQRSYEIDSEICPPDDLASLPSCKENPEDVLSPTSVATYLSSKSQPSAKVSVMGTDQSESINTSNETEYLKQKIHDLETELEGYQNFIFQLQKHSQCSEAIITVLCGTEGAQDGLSKPKNGSDGEEMTFSSLHQVRYVKHVKILGPLAPEMIDSRVLENLKQQLEEQEYKLQKEQNLNMQLFSEIHNLQNKFRDLSPPRYDSLVQSQARELSLQRQQIKDGHGICVISRQHMNTMIKAFEELLQASDVDYCVAEGFQEQLNQCAELLEKLEKLFLNGKSVGVEMNTQNELMERIEEDNLTYQHLLPESPEPSASHALSDYETSEKSFFSRDQKQDNETEKTSVMVNSFSQDLLMEHIQEIRTLRKRLEESIKTNEKLRKQLERQGSEFVQGSTSIFASGSELHSSLTSEIHFLRKQNQALNAMLIKGSRDKQKENDKLRESLSRKTVSLEHLQREYASVKEENERLQKEGSEKERHNQQLIQEVRCSGQELSRVQEEVKLRQQLLSQNDKLLQSLRVELKAYEKLDEEHRRLREASGEGWKGQDPFRDLHSLLMEIQALRLQLERSIETSSTLQSRLKEQLARGAEKAQEGALTLAVQAVSIPEVPLQPDKHDGDKYPMESDNSFDLFDSSQAVTPKSVSETPPLSGNDTDSLSCDSGSSATSTPCVSRLVTGHHLWASKNGRHVLGLIEDYEALLKQISQGQRLLAEMDIQTQEAPSSTSQELGTKGPHPAPLSKFVSSVSTAKLTLEEAYRRLKLLWRVSLPEDGQCPLHCEQIGEMKAEVTKLHKKLFEQEKKLQNTMKLLQLSKRQEKVIFDQLVVTHKILRKARGNLELRPGGAHPGTCSPSRPGS |
